Measurements reported in patent US20090069418A1, “Compositions and Methods for the Treatment of Disorders Associated with Aberrant Vasodilation” (priority 2007, published 2009).

Tested on: mice
Assay type: in vivo
Conditions: given prior to LCA occlusion (PRE)
Description: Male mice between the ages of 16-24 weeks were anesthetized with isoflurane (induction 4-5 vol %; maintenance 1-2 vol %), intubated with a 20G plastic IV catheter, and mechanically ventilated using a rodent ventilator (Inspira, volume-controlled, Harvard Apparatus, MA). ECG and rectal temperature were continuously monitored using a PC-based recording device (PowerLab 8/30, ADInstruments, Colorado Springs, Colo.). The animals were positioned in a right lateral decubital position on a heating pad and rectal temperature was maintained at 37° C. throughout the experiment. A PE-10 catheter was inserted into the left jugular vein for intravenous drug infusion. Using a dissecting microscope, a left-sided thoracotomy was performed in the 4th intercostal space. […] A ligature (8-0 Monosof MV-135-4, ⅜ 5 mm tapered needle, Syneture, Norwalk, Colo.) was placed around the left coronary artery (LCA) approximately 2 mm distal to the left atrial margin. The suture was fed through a short section of PE-10 tubing to form a snare to allow temporary occlusion. The LCA was occluded for 40 minutes; occlusion was confirmed by persistent ECG changes during occlusion and visual paling of the left ventricle (LV). After 40 minutes the snare was released and reperfusion was confirmed with visual hyperemia of the LV and return of the ECG changes. After 2 hours of reperfusion the LCA was re-occluded and fluorescent polymer microspheres (0.4% solution, diameter 1-10 μm; Duke Scientific Corporation, Palo Alto, Calif.) were infused via needle puncture of the LV apex. […] Heart was then excised, rinsed in normal saline, and the right and left atria were removed under the dissecting microscope. The remaining left and right ventricles were weighed and then sliced into seven sections (d=1 mm) for imaging and staining.
Heart sections were immediately photographed with a digital camera (Canon Powershot A620) under UV light for determination of AAR. Infarct size (I) was determined by staining the heart sections in 1% 2,3,5 triphenyltetrazolium chloride (TTC) in phosphate buffer at pH 7.4 for 10 minutes, followed by 10% neutral buffered formalin (NBF) bath overnight. Pictures were taken the next day under full spectrum light. TTC stained non-infarcted myocardium red, while infarcted myocardium remained white. Both AAR and I areas were calculated in a blinded fashion using standard imaging software (Photoshop Elements 4). A calibration ruler was present in each picture to convert pixels into volume. TTC slices were volume corrected for dehydration following formalin immersion.
The 14,15-EET was obtained from BIOMOL (Plymouth Meeting, Pa.). It was dissolved in a vehicle composed of 100% ethanol and saline (1:3), resulting in a final ethanol solution of 25%. […]

C=CCN1C[C@H](C)N([C@@H](c2ccccc2)c2ccc(C(=O)N(CC)CC)cc2)C[C@H]1C [SNC-162]
AAR/Biventricular volume: 27 ± 2%
Area At Risk: 31 ± 3 mm^3
Biventricular Weight: 115 ± 6 mg
Body Weight: 26 ± 1 g
